In patent US20250121064A1 (CARSGEN LIFE SCIENCES, published 2025) one finds binding data, which are given here for one molecule.

Amino acid sequences for entries named in this document (tags omitted). A change or cut given only in a name is not applied to a line headed by its entry.
UniProt Q9JIL6: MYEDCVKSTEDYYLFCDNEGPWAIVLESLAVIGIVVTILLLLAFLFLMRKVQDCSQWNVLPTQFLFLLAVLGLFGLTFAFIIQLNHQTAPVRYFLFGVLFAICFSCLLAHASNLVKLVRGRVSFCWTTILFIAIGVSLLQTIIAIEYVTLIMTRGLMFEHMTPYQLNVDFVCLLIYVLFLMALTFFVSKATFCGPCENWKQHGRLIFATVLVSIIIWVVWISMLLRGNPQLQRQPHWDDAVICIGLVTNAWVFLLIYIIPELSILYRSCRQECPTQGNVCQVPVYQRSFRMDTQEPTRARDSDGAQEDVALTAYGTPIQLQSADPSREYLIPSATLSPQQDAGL

These are yes or no findings as the source states them, for the method shown. Some binding calls cover weakened binding; strength is not graded here.

Assay [1] concerns the target mouse GPRC5D on cells (mouse) (UniProt Q9JIL6). The assay can be described thus: flow cytometry on CHOK1-muGPRC5D cells (FIG. 2).
Assay [2] has the same target. The assay can be described thus: flow cytometry on CHOK1-muGPRC5D cells. Background: Flow cytometry measures light scatter and fluorescence of single cells or particles in a stream.

B1: hybridoma antibody AB1 (IgG2b-k) (antibody, V domains shown)
VH: EVQLQQSGPEVVKPGASMKISCKASGYSFTGYTMNWVKQSHGKNFEWIGLINPYNGGTSYNQKFKGKATLTVDKSSSTAYMELLSLTSEDSAVYYCTRGGFRAWFAFWGQGTLVTVSA
VL: DIQMTQSPSSLSASLGERVSLTCRASQDIGSNLNWLQQEPDGTIKRLIYATSILDSGVPKRFSGSRSGSDYSLTISSLESEDFVDYYCLQYATFPNTFGGGTKLEIKR
notes: Mouse hybridoma mIgG, IgG2b kappa
As to B1, the binding result in assay [1] and in assay [2] was “binds” throughout.
